Molecular target: recombinant human BACE-1 protein (Homo sapiens (Human), UniProt P56817)
Experiment: Measurement of Inhibition of β-Secretase Activity
Format: biochemical
Details: 3 h at 30° C., pH5.0
Method: Zero point five μL of the test compounds (dissolved in N,N′-dimethylsulfoxide) were incubated with 48.5 μL of the fluorescence-quenched peptide substrate solution (Biotin-XSEVNLDAEFRHDSGC-Eu:X=ε-amino-n-capronic acid, Eu=Europium cryptate) and 1 μL of recombinant human BACE-1 protein (R&D systems) for 3 h at 30° C. in the 96 well half-area plate (black color plate, Costar). The substrate peptide was synthesized by reacting with Biotin-XSEVNLDAEFRHDSGC (Peptide Institute) and Cryptate TBPCOOH mono SMP (CIS bio international). […] The enzymatic reaction was performed in sodium acetate buffer (50 mM sodium acetate (pH5.0), 0.008% Triton X-100). After the reaction, a 50 μL of 8.0 μg/mL Streptavidin-XL665 (CIS bio international) dissolved in phosphate buffer (150 mM K2HPO4—KH2PO4 (pH 7.0), 0.008% Triton X-100, 0.8 M KF) was add to each well and incubated for 1 h at 30° C.

Sequences of proteins named here, by UniProt entry; tags and fusion partners are left off. Residues count along the entry.
UniProt P56817, 46-501: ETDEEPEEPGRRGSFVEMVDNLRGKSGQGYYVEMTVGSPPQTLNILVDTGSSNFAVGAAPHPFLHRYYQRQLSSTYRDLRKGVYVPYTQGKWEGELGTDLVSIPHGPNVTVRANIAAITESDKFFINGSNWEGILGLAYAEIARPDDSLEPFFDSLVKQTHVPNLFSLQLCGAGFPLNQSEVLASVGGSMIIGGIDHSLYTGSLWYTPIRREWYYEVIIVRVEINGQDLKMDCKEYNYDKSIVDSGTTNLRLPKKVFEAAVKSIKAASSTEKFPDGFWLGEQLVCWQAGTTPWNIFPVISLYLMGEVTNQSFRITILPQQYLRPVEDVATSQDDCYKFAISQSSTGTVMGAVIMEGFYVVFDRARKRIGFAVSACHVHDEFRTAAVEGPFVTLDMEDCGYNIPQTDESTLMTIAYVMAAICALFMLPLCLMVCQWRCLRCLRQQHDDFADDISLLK

IC50 [nM] | SMILES
220 | CC1(c2cccc(NC(=O)c3ccc(F)cn3)c2)CCSC(N)=N1 (centres unmarked) [Compound 212]
229 | COCc1cc(NC(=O)c2ccc(Cl)cn2)cc(C2(C)CCSC(N)=N2)c1.Cl (centres unmarked) [Compound 284]

— US8546380B2, “Aminodihydrothiazine derivatives” (Shionogi & Co., Ltd., priority 2005, dated 2013)
